These are yes or no findings as the source states them, for the method shown. In cells and extracts the contact can be indirect. Here binding means that the protein was enriched with, or labelled near, the bait; the list need not be complete. For part of these data: A no says only that the protein was not detected with the bait. Sequences can lack the tags named with a protein. Each block holds one binder with its values, some of them ahead of it.
What was measured:
[1] = target: T1, Pst3 with C-terminal 3× Flag-tag (S. pombe, UniProt O74755 1-1154); assay: affinity purification with mass spectrometry; Pst3-3×Flag as bait from S. pombe lysate (350 mM NaCl) on ANTI-FLAG M2 resin, FLAG peptide elution, glycerol gradient; SDS-PAGE bands analysed by LC-MS/MS
T1 construct: Pst3, Sin3 homolog of S. pombe, subunit of the SIN3L complex; PAH3, HID and HCR are resolved in the model; Endogenous protein; also called Pst3-Flag; Sin3 isoform Pst3; source: endogenous locus tagged, S. pombe; purified (ANTI-FLAG M2 resin, glycerol gradient); not shown: 3× Flag, C-terminal, kept
T1 sequence (looked up): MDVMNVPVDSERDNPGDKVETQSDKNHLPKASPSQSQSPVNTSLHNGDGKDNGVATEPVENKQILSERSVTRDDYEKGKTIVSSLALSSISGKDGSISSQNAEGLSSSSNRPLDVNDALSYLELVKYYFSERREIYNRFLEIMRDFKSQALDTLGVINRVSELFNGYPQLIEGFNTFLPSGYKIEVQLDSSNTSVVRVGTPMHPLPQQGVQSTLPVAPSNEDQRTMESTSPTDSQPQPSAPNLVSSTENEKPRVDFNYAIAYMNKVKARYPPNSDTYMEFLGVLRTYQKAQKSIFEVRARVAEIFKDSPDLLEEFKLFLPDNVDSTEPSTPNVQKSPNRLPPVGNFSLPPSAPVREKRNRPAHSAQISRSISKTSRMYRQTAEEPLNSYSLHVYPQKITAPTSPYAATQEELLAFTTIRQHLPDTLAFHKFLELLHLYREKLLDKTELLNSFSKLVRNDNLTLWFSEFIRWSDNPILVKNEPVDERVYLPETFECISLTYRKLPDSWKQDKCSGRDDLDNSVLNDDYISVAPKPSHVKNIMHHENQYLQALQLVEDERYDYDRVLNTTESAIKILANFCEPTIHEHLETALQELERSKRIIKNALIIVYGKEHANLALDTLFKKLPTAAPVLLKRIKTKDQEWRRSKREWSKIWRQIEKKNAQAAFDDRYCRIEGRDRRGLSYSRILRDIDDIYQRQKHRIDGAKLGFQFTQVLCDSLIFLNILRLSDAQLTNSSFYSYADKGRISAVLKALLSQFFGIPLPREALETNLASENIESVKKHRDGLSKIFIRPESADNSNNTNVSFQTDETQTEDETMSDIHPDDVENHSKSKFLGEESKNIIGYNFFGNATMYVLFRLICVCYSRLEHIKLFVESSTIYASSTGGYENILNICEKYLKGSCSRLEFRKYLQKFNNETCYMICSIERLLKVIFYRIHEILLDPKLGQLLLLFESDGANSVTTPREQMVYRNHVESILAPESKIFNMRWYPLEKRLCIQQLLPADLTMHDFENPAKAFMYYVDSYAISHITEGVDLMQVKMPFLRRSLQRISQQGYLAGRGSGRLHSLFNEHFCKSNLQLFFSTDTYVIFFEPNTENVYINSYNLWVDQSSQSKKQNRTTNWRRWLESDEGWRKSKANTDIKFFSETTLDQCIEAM

[2] = target: T2, Pst2 with C-terminal 3× Flag-tag (S. pombe, UniProt O13919 1-1075); assay: affinity purification with mass spectrometry; Pst2-3×Flag as bait from S. pombe lysate (350 mM NaCl) on ANTI-FLAG M2 resin, FLAG peptide elution, glycerol gradient; SDS-PAGE bands analysed by LC-MS/MS
T2 construct: Pst2, Sin3 homolog of S. pombe, organising subunit of the SIN3S complex; all five domains (PAH1/2/3, HID, HCR) are resolved; also called Pst2-Flag; Sin3 isoform Pst2; source: endogenous locus tagged, S. pombe; purified (ANTI-FLAG M2 resin, glycerol gradient); not shown: 3× Flag, C-terminal, kept
T2 sequence (looked up): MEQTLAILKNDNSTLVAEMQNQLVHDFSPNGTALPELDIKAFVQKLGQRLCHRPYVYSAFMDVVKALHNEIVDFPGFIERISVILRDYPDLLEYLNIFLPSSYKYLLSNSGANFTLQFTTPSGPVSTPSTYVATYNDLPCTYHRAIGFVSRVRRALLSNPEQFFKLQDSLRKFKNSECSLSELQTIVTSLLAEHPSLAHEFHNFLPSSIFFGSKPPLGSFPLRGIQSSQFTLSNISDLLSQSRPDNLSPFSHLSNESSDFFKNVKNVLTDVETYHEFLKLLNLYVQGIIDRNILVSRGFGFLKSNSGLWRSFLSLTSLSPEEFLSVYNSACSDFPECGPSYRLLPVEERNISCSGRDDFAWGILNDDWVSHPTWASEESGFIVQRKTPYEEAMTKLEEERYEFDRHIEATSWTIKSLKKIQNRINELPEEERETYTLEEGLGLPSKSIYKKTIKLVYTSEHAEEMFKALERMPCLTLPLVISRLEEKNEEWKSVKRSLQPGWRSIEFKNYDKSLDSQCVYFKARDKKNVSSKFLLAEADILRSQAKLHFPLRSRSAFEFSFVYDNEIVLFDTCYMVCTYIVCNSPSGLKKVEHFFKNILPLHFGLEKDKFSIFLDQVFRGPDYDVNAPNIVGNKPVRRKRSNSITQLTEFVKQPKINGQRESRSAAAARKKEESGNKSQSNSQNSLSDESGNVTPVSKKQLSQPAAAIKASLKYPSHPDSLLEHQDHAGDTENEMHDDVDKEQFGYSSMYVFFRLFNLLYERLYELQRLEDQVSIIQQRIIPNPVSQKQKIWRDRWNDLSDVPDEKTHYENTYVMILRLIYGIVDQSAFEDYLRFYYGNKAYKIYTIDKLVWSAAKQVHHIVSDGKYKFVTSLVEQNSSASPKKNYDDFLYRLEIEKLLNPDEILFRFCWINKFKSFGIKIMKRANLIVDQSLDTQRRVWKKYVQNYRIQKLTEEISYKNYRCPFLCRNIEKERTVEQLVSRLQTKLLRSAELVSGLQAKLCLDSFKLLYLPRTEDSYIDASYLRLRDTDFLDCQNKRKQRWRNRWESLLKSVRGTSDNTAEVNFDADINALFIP

binding [1]: binds
B1: Laf1 (protein, UniProt O13719 1-297)
chain: MKSSQTLVYSIPRNVEKDTCAAAIKAYQYLISPPPSPIPNDKVASTVDVPKCSTIPESPKDSIVEPKPTATPVAQLHSKVYDLYRDSPKIWLRRERQWLQRHSPAYRFSTPAAKRPRRQPSSFLDVHASNTRKRGSPDTPDSGHSTPHSKGDVHPGMPQHNTRFKQSSREFSSNTQAIDVANTPYELLPDYSPDMSVLDKRSHPRPLRSEWKGPPLDLSNDENRHLLHPAELQLAATLRLPCLVYLDNKRRIFAEWHNRRTQGLSFRKTDAQRASRVDVNKASRLWKAFHDEGFFDD

binding [2]: binds
B2: Eaf3 (protein, UniProt O13953 1-337)
chain: MAVSYKVNERVLCFHGPLLYEAKIVDTEMKGDVTTYLIHYKGWKNSWDEWVEQDRILQWTEENLKTQKELKNAAISTRQKPTSKKSASSTSKHDSTGVKTSGKRSRESSTVTVDGDSHELPSRIKTQKSESPIPQQVKRDGTTDAKNEETTKPENNEKDDFEEEPPLPKHKISVPDVLKLWLVDDWENITKNQQLIAIPRNPTVRAAIAAFRESKISHLNNEIDVDVFEQAMAGLVIYFNKCLGNMLLYRFERQQYLEIRQQYPDTEMCDLYGVEHLIRLFVSLPELIDRTNMDSQSIECLLNYIEEFLKYLVLHKDEYFIKEYQNAPPNYRSLVGV

binding [1]: binds
B3: Png2 (protein, UniProt O74736 1-305)
chain: MGTSGIEIFAALNDFTDAIVSVPESVCGKFTSLKEIDAQVRDIRQNVIQEIGVVLKNEKNDELSGEERCERLQKTLKEILPYSDSKICLATDAMNNIKSCIDRLDAGFEYVELEIPQQLRLGYPDDRALMNYHSTVTPQTSERRRETRRHQNNQHSQQYSSQERSSSYNNFEDASSPQSSYHTPTKRRKNAVPRKSSSPPLSSTKHAPQSTERRPVRRSESRLKQTNGEPLVKHDTLDSSDISREGEQLYCYCQQVSYGQMIGCDNENCKREWFHLPCVGLVEPPKGIWYCKECEELAKSSESRQ

binding [2]: no binding | binding [1]: binds
B4: iron-sensing transcriptional repressor Fep1 (protein, UniProt Q10134 1-564)
chain: MAAKPAPFGQSCSNCHKTTTSLWRRGPDNSLLCNACGLYQKHRKHARPVKSEDLKDISPLIQQVCKNGTCAGDGFCNGTGGSASCTGCPALNNRIRSLNASKSQSGRKSLSPNPSSVPSSTETKASPTPLESKPQIVSDTTTETSNGTSRRRSSHNQHEDSSPPHEPSVTFCQNCATTNTPLWRRDESGNPICNACGLYYKIHGVHRPVTMKKAIIKRRKRLVFNGNANESQHNLKRMSSGDSGSSVKQQSTRDGPFSKSFPNGNGHASGNSGEGLAEHGMNTGVLPPASTFPSYNSNFTGFLPSSFNPSPLMTLSRLAAGEPDNNGKVYYSYGPTQEQSILPLPENKHEGLPPYQNEYVPNGIRANQVVYPGQLVAVGNDSSKQLSESTTSNTDNNGVATANQSNPLGMKFHLPPILPVGESVCLPPRTSAKPRIAEGIASLLNPEEPPSNSDKQPSMSNGPKSEVSPSQSQQAPLIQSSTSPVSLQFPPEVQGSNVDKRNYALNVLSQLRSQHDLMIQELHNLNQHIQQIDEWLRSSDNENMASEHIKSSTPAVVASGALQT

binding [1]: binds
B5: Sds3 (natural protein, S. pombe, UniProt Q9UTB6 1-267, looked up)
chain: MDVLSRVFDNEKEELDPLLNNPLTASEFRAKKAELEAELESIRNGTCKTLLDLADELRRSRDEELEIAERWRTFLVNRAQEEYEVEMKAAKEEYEYRCKTLKEMVLSHLNEKKRKIYEAKDMFDIGSESSTLLLHDASSQFIDRRKLRHRRNAGNQQNTQQLPSLNFFDDYLLFPTDETAVIPQSVKNAVRNSVNSVKPTSAEASLFSPLLSMANANPTNGRERDPRASERAERDREKAVEKGLSGATEEDIQSDLQLLKKELAKKK
notes: Sds3 of S. pombe, scaffold subunit of the SIN3L complex; Endogenous protein; source: endogenous, S. pombe; co-purified with Pst3-3×Flag (ANTI-FLAG M2 resin, glycerol gradient)

binding [1]: binds
B6: Dep1 (protein, UniProt Q9P7M1 1-491)
chain: MTENLQSESIPHEILPKEPFDLPMNNLKSSPKNKDSEKRINNSIAESEQVVDSALSNPETNANEDIIAPQLPSQNSEIIEKNSPVNKLNSSTSLTTHQLASLPKLEVTDHDNVSEAETVVLNEDEEKETSLVGSVSVTEDLGDSSAIGRTILVNNSVEPQMENTANITIVSPSLKESDFESEEKATNDNNGLIETNHNSKLEESSEHEEEEDEESNIERTEDSDHQIPQRGGTLEAPRKGGPRSGVGSRKRKRATVSRKWSTNSESKIKRVALETSQEESDREIADRRSASEQAHEADDEKAIKRKEAFDALLNIETEFTFLRNRLYGKKLLKLNEHEEMIQNETHERFNACIDLITERRDDRVRLATENLMKQLGNIKNVMDYVTKQRKYQLLFDKRRIRQALLTKIATKCFQLLNKQKSVHDPTYITQKTMSYRQSALLQKQRIEYEAAVLCELNSFAGFPTAPIIETASFDDIRNDLLEMGCLSENQD

binding [1]: binds
B7: Cti6 (protein, UniProt Q1MTR4 1-424)
chain: MPSNSTPANEEKEEESEKIQKSPVDTPHTPNGSVSDNEENETSSTGEVTRCVCGIVESDDEASDGGLYIQCDQCSVWQHGNCVGFADESEVPEVYYCEICHPEFHKVYQRGRGAKQSKYLGNGKPIEASQTEESSSTPPSPATKKSSKQRLTMNSRDAALDYEEYLAIAKEKSLIPRRSRGRTSSKSLSPPAPQDESQGTEINLKQKIEEENDEILEDSKESKDENEENKETSTTNVAETDAPEEETVDTVEEIADEEKHSVKEESGEASPQSSQQSTITSISTTTRSTRKAKREAAAEDKADLPAAVAPKPSKTRKVGGRRGKSSSNDNHRIPQLHPDGTFVETITKPKGLHSRITMTEMRRRVASMLEYIGHIQVEMAAQSAGNQSSTKSSKEGPEEEKETLRMVDNLTRDLLHWEQRFSRT

binding [1]: binds
B8: Laf2 (protein, UniProt O74443 1-272)
chain: MQILKDQENLNPDGGSFVLITPPLSPPKQKSLSYTNISRRHGMRACMKGIVYEVYKNQPKLWLQQELIWLRRKRIHPIPKARRNNHVGRWANRHSNVSSSSGSRGRSSVSSRDSSPSYSGALRSAERSISSSPSTIEARRRKSARGNGLNGAIDVANLPFEELPNFCPDMSVLDNRTHPRTLKAEWKGPPLDLSDDPYRDLLHPAELHLASTLRLPCLIYLDNKKRIFAEWHHRRQQGLTFRKTDAQRASRVDVNKASRLWKAFHEVGFFDD
